36 targets from the supplement of paper PMC7666118 can be followed below.

Amino acid sequences for entries named in this document (tags omitted). A change or cut given only in a name is not applied to a line headed by its entry.
UniProt P57088: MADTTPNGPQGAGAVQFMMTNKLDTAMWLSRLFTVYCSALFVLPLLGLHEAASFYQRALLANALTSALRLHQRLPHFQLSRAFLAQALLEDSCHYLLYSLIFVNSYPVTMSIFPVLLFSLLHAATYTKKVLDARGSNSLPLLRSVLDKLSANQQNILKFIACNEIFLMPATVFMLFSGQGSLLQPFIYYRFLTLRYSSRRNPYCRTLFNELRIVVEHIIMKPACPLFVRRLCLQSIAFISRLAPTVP
UniProt Q96J01: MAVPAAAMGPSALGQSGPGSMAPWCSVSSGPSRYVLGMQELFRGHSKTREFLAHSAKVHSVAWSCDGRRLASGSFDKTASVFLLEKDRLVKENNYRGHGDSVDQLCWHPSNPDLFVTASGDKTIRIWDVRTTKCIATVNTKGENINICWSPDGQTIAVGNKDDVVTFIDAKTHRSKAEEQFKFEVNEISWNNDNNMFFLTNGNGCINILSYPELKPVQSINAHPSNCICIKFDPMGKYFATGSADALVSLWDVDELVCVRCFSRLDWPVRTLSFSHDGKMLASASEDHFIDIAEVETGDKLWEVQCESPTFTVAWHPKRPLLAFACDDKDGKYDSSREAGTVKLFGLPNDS
UniProt O14717: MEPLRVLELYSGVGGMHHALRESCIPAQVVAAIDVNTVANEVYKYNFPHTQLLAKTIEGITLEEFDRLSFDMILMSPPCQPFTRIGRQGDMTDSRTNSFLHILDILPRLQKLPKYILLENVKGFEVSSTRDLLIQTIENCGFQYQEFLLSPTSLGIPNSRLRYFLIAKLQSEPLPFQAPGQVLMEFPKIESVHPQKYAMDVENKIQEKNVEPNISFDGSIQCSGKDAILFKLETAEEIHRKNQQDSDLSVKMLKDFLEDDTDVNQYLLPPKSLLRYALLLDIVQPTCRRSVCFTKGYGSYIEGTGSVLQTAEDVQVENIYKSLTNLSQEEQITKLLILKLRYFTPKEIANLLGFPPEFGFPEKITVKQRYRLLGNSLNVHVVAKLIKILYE
UniProt O14545: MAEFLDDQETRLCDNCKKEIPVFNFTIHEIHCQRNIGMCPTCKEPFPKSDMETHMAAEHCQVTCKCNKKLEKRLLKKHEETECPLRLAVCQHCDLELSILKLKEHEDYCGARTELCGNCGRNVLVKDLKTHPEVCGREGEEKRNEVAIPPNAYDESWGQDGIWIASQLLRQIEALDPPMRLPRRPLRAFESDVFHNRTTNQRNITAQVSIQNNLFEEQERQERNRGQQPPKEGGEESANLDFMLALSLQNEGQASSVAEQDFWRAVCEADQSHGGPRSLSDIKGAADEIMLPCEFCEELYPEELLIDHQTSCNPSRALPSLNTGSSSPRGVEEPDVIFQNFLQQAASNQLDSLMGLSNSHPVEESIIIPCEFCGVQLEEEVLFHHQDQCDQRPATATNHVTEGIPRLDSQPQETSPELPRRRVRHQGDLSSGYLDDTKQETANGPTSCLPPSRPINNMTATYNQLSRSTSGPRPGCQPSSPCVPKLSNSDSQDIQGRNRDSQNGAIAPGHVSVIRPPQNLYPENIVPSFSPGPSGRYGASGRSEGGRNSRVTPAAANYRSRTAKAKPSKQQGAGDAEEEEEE
UniProt Q9NWX6: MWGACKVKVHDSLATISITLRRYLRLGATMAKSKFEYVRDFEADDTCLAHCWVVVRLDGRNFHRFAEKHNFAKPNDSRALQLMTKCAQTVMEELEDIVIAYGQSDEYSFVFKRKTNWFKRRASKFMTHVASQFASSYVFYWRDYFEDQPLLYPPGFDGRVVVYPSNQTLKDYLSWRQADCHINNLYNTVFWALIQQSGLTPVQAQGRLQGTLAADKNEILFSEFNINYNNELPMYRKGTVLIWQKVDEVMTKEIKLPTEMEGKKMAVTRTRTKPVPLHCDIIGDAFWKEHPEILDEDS
UniProt Q9P0S9: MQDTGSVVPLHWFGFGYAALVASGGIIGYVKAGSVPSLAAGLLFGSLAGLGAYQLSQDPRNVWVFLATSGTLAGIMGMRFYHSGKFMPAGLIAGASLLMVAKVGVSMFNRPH
UniProt Q96HH6: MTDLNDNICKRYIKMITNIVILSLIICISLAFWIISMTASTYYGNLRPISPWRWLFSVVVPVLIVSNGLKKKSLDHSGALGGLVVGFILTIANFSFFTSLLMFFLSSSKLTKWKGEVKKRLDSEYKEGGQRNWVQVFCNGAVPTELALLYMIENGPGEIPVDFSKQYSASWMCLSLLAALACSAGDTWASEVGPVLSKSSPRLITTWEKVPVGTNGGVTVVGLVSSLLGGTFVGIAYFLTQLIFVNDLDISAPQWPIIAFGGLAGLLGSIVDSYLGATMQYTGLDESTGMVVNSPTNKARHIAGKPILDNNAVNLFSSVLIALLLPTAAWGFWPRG
UniProt Q9BYV8: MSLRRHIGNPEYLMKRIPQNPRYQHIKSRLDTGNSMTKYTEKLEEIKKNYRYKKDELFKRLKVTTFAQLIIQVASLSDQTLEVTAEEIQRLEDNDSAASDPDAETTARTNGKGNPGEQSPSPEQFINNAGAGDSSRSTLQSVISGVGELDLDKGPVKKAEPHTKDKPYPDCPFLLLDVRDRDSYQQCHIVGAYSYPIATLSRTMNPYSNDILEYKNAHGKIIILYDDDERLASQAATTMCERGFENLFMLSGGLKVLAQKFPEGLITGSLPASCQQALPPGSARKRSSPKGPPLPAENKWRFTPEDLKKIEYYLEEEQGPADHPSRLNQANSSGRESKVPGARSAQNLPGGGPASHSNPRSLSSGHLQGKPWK
UniProt Q6PL24: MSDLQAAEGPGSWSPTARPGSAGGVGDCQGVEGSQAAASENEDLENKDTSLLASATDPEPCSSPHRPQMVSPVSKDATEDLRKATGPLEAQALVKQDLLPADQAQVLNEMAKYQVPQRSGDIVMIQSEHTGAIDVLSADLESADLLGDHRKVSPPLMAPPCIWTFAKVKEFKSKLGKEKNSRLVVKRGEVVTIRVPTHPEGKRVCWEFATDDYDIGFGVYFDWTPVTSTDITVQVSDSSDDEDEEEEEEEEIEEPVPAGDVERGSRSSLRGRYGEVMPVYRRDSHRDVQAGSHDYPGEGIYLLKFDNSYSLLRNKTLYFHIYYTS
UniProt Q5U3C3: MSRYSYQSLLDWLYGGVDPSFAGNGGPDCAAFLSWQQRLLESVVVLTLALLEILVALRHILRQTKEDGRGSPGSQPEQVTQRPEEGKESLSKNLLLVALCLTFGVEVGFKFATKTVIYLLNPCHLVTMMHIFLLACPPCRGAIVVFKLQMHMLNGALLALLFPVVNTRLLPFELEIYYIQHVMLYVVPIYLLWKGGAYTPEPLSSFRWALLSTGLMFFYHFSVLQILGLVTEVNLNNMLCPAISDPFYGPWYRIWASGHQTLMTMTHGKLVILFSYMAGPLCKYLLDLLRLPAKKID
UniProt Q9Y5L4: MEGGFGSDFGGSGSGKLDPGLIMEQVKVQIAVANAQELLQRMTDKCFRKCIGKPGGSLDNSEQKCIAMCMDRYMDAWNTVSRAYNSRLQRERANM
UniProt Q9UPN9: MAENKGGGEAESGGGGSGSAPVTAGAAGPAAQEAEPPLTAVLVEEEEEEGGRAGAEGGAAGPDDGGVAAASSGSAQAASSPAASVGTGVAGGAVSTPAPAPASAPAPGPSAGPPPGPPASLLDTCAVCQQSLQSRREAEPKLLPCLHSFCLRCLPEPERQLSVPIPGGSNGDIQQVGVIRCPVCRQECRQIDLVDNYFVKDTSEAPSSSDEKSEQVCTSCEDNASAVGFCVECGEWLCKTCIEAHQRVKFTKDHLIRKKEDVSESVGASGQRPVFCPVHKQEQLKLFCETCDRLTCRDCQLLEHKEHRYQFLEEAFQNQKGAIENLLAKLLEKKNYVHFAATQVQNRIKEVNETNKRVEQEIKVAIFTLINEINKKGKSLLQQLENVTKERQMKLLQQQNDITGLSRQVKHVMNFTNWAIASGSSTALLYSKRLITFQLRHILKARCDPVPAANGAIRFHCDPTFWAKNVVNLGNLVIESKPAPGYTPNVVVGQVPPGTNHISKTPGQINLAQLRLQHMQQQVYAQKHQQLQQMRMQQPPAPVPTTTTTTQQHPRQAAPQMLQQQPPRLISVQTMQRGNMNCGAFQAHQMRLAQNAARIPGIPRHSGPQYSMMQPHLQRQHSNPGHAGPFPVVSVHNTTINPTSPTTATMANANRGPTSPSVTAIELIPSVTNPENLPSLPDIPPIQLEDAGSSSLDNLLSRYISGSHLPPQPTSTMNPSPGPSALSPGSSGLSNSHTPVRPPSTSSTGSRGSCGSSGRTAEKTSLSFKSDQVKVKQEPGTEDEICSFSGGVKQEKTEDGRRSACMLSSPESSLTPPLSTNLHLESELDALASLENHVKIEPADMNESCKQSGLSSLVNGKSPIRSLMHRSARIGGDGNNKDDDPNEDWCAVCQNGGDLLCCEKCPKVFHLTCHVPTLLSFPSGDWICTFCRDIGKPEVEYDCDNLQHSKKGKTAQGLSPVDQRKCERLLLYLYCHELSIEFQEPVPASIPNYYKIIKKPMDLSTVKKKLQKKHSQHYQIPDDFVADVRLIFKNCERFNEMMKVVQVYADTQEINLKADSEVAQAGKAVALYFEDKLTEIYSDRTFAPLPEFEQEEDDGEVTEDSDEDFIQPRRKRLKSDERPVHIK
UniProt P62072: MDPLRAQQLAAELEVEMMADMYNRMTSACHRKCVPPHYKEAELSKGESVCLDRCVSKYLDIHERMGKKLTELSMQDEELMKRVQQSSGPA
UniProt Q96AE7: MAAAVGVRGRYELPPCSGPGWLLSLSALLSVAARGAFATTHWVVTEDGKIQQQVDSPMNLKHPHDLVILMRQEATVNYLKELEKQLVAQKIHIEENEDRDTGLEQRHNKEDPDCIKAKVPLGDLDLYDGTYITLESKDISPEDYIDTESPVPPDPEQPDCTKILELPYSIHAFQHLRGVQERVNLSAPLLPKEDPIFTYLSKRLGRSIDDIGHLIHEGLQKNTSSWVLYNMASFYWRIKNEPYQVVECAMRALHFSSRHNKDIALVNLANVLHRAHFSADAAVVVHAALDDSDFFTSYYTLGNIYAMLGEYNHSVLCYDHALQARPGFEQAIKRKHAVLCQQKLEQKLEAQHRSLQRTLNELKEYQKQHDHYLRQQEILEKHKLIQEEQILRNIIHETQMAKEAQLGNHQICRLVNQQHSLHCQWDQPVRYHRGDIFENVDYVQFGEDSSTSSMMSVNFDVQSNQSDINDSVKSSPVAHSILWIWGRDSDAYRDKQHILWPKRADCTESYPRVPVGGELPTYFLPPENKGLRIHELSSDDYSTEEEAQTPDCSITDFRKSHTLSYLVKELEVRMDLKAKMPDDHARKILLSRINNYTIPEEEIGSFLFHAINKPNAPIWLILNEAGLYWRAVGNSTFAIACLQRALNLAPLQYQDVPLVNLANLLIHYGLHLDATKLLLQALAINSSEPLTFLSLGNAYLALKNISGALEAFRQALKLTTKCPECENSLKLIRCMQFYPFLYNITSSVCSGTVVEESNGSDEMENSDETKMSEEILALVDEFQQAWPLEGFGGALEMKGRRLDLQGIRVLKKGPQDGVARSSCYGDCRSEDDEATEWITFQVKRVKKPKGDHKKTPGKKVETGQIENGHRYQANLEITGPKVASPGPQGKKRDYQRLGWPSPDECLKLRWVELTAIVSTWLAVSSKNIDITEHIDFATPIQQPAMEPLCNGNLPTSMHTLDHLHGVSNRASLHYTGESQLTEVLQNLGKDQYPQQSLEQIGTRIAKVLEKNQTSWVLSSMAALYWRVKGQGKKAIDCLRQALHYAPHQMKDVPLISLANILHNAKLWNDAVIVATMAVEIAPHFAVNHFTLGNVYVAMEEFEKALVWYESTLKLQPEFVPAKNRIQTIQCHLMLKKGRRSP
UniProt Q15645: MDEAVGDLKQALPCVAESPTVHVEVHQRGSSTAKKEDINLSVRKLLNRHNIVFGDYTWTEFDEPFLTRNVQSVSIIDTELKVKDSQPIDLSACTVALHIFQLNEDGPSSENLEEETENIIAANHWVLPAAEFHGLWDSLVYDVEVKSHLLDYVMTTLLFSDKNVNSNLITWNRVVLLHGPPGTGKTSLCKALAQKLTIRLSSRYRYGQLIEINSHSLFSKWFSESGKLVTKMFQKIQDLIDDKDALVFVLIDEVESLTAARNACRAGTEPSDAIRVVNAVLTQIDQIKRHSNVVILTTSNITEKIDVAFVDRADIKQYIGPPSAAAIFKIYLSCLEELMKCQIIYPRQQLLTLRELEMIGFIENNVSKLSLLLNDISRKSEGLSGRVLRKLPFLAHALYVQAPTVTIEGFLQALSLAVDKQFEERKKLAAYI
UniProt Q5J8M3, whole entry: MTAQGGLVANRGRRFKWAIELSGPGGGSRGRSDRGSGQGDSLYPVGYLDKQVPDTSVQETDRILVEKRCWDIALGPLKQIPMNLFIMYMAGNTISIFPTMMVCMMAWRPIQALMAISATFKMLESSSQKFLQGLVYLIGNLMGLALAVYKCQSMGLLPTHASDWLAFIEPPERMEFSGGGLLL

This is one part of the list.

Compound in the experiment: COc1ccc(Cn2ccc3cc(C)c(C(=O)NO)cc32)cc1
Nature of the experiment: dose-dependent thermal stabilisation call (2D-TPP, DLPTP, 10% FDR) (binary (1 = stabilised)); higher = stabilised by the compound. The conditions noted are these: system: HL-60 intact cells; concentration range 0.04-10 µM. As to the method: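 2D thermal proteome profiling in intact HL-60 cells treated with BRD-3811 (0, 0.04, 0.29, 2, 10 uM) for 90 min at 37 C, then heated 3 min at one of 12 temperatures (42-63.9 C). Soluble protein was quantified by TMT10 MS. The value is the DLPTP call of the paper: dose-dependent thermal stabilisation over all temperatures at 10% FDR (F-test of a dose-response against a flat model); one experiment, one call per tested protein.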
As to TIPRL (UniProt O75663), the “dose-dependent thermal stabilisation call” value was inactive: 0. As for TMEM33 (UniProt P57088), the figure is inactive: 0; as for TMEM48 (UniProt Q9BTX1), inactive: 0; as for THOC3 (UniProt Q96J01), inactive: 0. As for TP53I3 (UniProt Q53FA7), the figure is inactive: 0. To TRDMT1 (UniProt O14717) belongs inactive: 0.

For TRAFD1 (UniProt O14545), the “dose-dependent thermal stabilisation call” value was inactive: 0. To TRIT1 (UniProt Q9H3H1) belongs inactive: 0; to TMF1 (UniProt P82094), inactive: 0. TRIM72 (UniProt Q6ZMU5): the “dose-dependent thermal stabilisation call” value was inactive: 0.

Take THG1L (UniProt Q9NWX6): the “dose-dependent thermal stabilisation call” value was inactive: 0. In the case of TOR1AIP2, the “dose-dependent thermal stabilisation call” value is inactive: 0. As to TMEM126B (UniProt Q8IUX1), the “dose-dependent thermal stabilisation call” value is inactive: 0. As for TMEM14C (UniProt Q9P0S9), the figure is inactive: 0; as for TMEM19 (UniProt Q96HH6), inactive: 0. To TRUB1 (UniProt Q8WWH5) belongs inactive: 0. As for TMEM201 (UniProt Q5SNT2), the figure is inactive: 0.

Consider TMUB1 (UniProt Q9BVT8), for which the “dose-dependent thermal stabilisation call” value was inactive: 0. To TIAL1 (UniProt Q01085) belongs inactive: 0. As for TNPO3 (UniProt Q9Y5L0), the figure is inactive: 0; as for TSGA14 (UniProt Q9BYV8), inactive: 0. As for TSTA3 (UniProt Q13630), the figure is inactive: 0; as for TTC21B (UniProt Q7Z4L5), inactive: 0. For TMED8 (UniProt Q6PL24), the “dose-dependent thermal stabilisation call” value was inactive: 0.

For the target TPR (UniProt P12270), the “dose-dependent thermal stabilisation call” value was inactive: 0.

On to TMEM164 (UniProt Q5U3C3), for which the “dose-dependent thermal stabilisation call” value is inactive: 0. In the case of TMEM184C (UniProt Q9NVA4), the “dose-dependent thermal stabilisation call” value was inactive: 0. Regarding TRIM25 (UniProt Q14258), the “dose-dependent thermal stabilisation call” value was inactive: 0. For the target TIMM13 (UniProt Q9Y5L4), the “dose-dependent thermal stabilisation call” value was active: 1.

Regarding TRIM33 (UniProt Q9UPN9), the “dose-dependent thermal stabilisation call” value was inactive: 0. For TIMM10 (UniProt P62072), the “dose-dependent thermal stabilisation call” value is inactive: 0. To TTC17 (UniProt Q96AE7) belongs inactive: 0; to TJP2 (UniProt Q9UDY2), inactive: 0; to TRIP13 (UniProt Q15645), inactive: 0. To TMEM85 (UniProt Q5J8M3) belongs inactive: 0; to TOMM40L (UniProt Q969M1), inactive: 0.
